The target of the test is recombinant human TGFβ1 (human). In words: ITC.

These are yes or no findings as the source states them, for the method shown. Binding calls can cover weak binding; strength is not graded here.

B1: recombinant mouse GDF3 (ligand)
chain: AAISVPKGFCRNFCHRHQLFINFQDLGWHKWVIAPKGFMANYCHGECPFSMTTYLNSSNYAFMQALMHMADPKVPKAVCVPTKLSPISMLYQDSDKNVILRHYEDMVVDECGCG
On to B1, for which the binding entry is “binds”.

The record behind these values is doi:10.1101/2022.11.07.515236 (bioRxiv, 2022).
